In PubChem BioAssay AID2685 (National Center for Advancing Translational Sciences (NCATS), 2010):
The list shows a part of the results. The main result of the screen is listed elsewhere. These columns were measured beside it and carry no call. Most of these compounds were active or inconclusive in the main read-out, so they are no random draw. The note in brackets gives the kind of curve behind each potency; many fits are weak.

Test: qHTS Assay for Lipid Storage Modulators in Drosophila S3 Cells;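 as to cell number change: cells counted by Cell Tracker Red CMTPX staining in the red channel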
Details: BODIPY lipid droplet fluorescence, 18-24 h; for cell number change: measured here: cell count max response, cells fed with added oleic acid
Outline: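 Drosophila S3 cells loaded with oleic acid (400 uM, as added) and compounds at several concentrations; lipid droplets imaged by 488-nm laser-scanning cytometry, 500–530 nm intensity and object ratio to cell channel. Percent activity normalized to 20 uM Triacsin C.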

[1] = measured here: cell number channel AC50, cells fed with added oleic acid
[2] = measured here: lipid fluorescence (Fed channel) AC50, cells fed with added oleic acid

Compound | cell number change | AC50 [1] | AC50 [2]
CN(CC(=O)Nc1ccccc1Cl)C(=O)c1ccc(COc2ccccc2)cc1 | 1.58% | – | –
CCn1c(-c2ccoc2C)n[nH]c1=S | 180% | 20.6 µM [rising, single point] | –
O=C(OCn1ncc(Cl)c(Cl)c1=O)c1cccc(C(F)(F)F)c1 | – | 6.51 µM [falling, single point] | 6.51 µM [falling, single point]
O=[N+]([O-])c1ccc(F)cc1F | 2.85% | 0.411 µM [falling, partial curve] | 0.651 µM [rising, full curve]
COc1ccc(C(C)(C)C)cc1NC(=O)CSc1ncn[nH]1 | -11.5% | – | 0.326 µM [falling, full curve, poor fit]
Cc1ccc(C(=O)c2ccccc2C(=O)OCC(=O)NCCc2ccccc2)cc1 | -22.2% | – | 14.6 µM [falling, partial curve]
O=C(COC(=O)C1CCN(S(=O)(=O)c2cccs2)CC1)c1ccccc1 | 182% | 29.1 µM [rising, single point] | –
CCOCCCNC(=O)c1ccc2nc(-c3ccc(OC)c(OC)c3)c(-c3ccc(OC)c(OC)c3)nc2c1 | -13.1% | – | 11.6 µM [falling, partial curve]
CC(=O)NC[C@H]1CN(c2ccc(N3CCOCC3)c(F)c2)C(=O)O1 | 33.6% | 13 µM [rising, partial curve] | 5.17 µM [rising, full curve]
CC(C)CC(COCc1ccc(Cl)cc1)N1CCN(C(=O)c2ccc(Cl)cc2Cl)CCC1=O (stereo not given) | -56.4% | 23.1 µM [falling, partial curve] | 23.1 µM [falling, partial curve]
COc1ccc(CCn2c(N)c(C(=O)NCc3ccco3)c3nc4ccccc4nc32)cc1OC | -78.5% | 20.6 µM [falling, partial curve] | 16.4 µM [falling, single point]
O=C(C1=C[C@@H](C2CC2)C[C@@H](OCCCCO)O1)N1CCOCC1 | -3.31% | – | 29.1 µM [falling, single point]
CCOc1ccc(S(=O)(=O)N(CC(=O)NCC(F)(F)F)Cc2ccco2)cc1 | 2.96% | – | 1.46 µM [falling, full curve, poor fit]
COc1cc(CC(=O)NC2CCCc3ccccc32)cc(OC)c1OC (stereo not given) | – | 0.461 µM [falling, partial curve] | –
Cc1cc(C=O)c(C)n1-c1cc(C(F)(F)F)ccc1N1CCOCC1 | -20.3% | – | 0.58 µM [rising, single point]
FC(F)(F)c1cccc(-c2ccc(/C=N/Nc3nncc(-c4ccccc4)n3)o2)c1 | -26% | – | 0.461 µM [falling, full curve, poor fit]
CN(C)S(=O)(=O)c1ccc(N2CCCC2)c(C(=O)NNC(=O)COc2ccccc2F)c1 | – | – | 6.51 µM [rising, single point]
O=C(O)c1c2c(nc3ccc(S(=O)(=O)N4CCC(C(=O)N5CCCCC5)CC4)cc13)CCCC2 | 8.91% | – | 29.1 µM [falling, single point]
O=C(Cn1nc(C(F)(F)F)c2c1CCCC2)NCc1ccco1 | 3.45% | – | 1.16 µM [falling, full curve, poor fit]

A few values from above:
Value for FC(F)(F)c1cccc(-c2ccc(/C=N/Nc3nncc(-c4ccccc4)n3)o2)c1 under cell number change: -26%
Value for COc1cc(CC(=O)NC2CCCc3ccccc32)cc(OC)c1OC (stereo not given) under AC50 [1]: 0.461 µM [falling, partial curve]
Value for CCOCCCNC(=O)c1ccc2nc(-c3ccc(OC)c(OC)c3)c(-c3ccc(OC)c(OC)c3)nc2c1 under AC50 [2]: 11.6 µM [falling, partial curve]

(further entries)

Compound | cell number change | AC50 [1] | AC50 [2]
CCc1noc(C)c1C(=O)Nc1ccc(S(=O)(=O)N2CCC(C)CC2)cc1 | 32.6% | 13 µM [rising, partial curve, poor fit] | 11.6 µM [rising, partial curve]
COc1cc(C(=O)NCCSc2ccc(Cl)cc2)cc(OC)c1OC | 21.8% | – | 20.6 µM [rising, partial curve, poor fit]
CCOC(=O)c1c(C)[nH]c(C(=O)N/N=C\c2ccccc2O)c1C | -21.8% | – | 18.4 µM [falling, partial curve]
COc1cc(C)ccc1OCCOc1c(C)cc(Cl)cc1Cl | 23.7% | – | 13 µM [rising, partial curve]
CCCCCCCCCCCCN1C/C(=C\C(=O)OCC)c2cc(C(F)(F)F)ccc2S1(=O)=O | 6.89% | – | 3.66 µM [rising, full curve]
O=C1CC(N2CCCN(C3CC(=O)N(c4ccc(F)cc4)C3=O)CC2)C(=O)N1c1ccc(F)cc1 (stereo not given) | -9.66% | – | 25.9 µM [falling, partial curve, poor fit]
CCN1CCN(c2ccc(S(=O)(=O)N3CCOCC3)cc2NC(=O)CCOc2ccccc2)CC1 | -11.5% | – | 16.4 µM [falling, partial curve]
COc1ccc(CCNC(=O)Cn2c(=O)c3cccn3c3cccnc32)c(OC)c1OC | 2.85% | – | –
O=C(N[C@@H](Cc1ccccc1)C(=O)N1CCN(S(=O)(=O)c2ccc(F)cc2)CC1)c1ccco1 | -11.1% | – | 0.651 µM [rising, single point]
Cc1ccccc1C(=O)N1CCN(c2ccc(NC(=O)c3ccc([N+](=O)[O-])o3)cc2)CC1 | -8.06% | – | 0.116 µM [rising, full curve, poor fit]
O=C(NCCc1ccc(F)cc1)c1cc(-c2ccncc2)nc2ccccc12 | 19% | – | 4.61 µM [rising, full curve, poor fit]
Cc1cc(F)ccc1S(=O)(=O)Nc1ccccc1C(=O)Nc1ccc2[nH]c(=O)[nH]c2c1 | -36.1% | 6.51 µM [falling, partial curve, poor fit] | 29.1 µM [falling, single point]
C#CCn1c(=NC(=O)CN2C(=O)CCC2=O)sc2cccc(OC)c21 | -2.46% | – | 20.6 µM [rising, single point]
CNc1ccccc1C(=O)OC | -22.8% | – | 1.03 µM [falling, full curve]
COc1ccc(-n2ccnc2SCC(=O)NCc2ccco2)c(OC)c1 | 45.2% | 6.51 µM [rising, full curve] | 0.0326 µM [rising, full curve]
COc1cccc(N(C(=O)CNC(=O)c2ccco2)C(C(=O)NC2CCCC2)c2ccco2)c1 (stereo not given) | 16.7% | 0.058 µM [rising, full curve, poor fit] | –
COc1ccc(CCNC(=O)C(=O)c2c[nH]c3ccccc23)cc1OC | -4.95% | – | 29.1 µM [rising, single point]
O=c1[nH]c2ccccc2n1CCCN1CCCCC1 | -11.7% | – | 6.51 µM [falling, single point]
COc1ccc(C(=O)/C=C/N2CCCCC2)cc1OC | 11.2% | – | 2.06 µM [rising, full curve, poor fit]

Compound | cell number change | AC50 [1] | AC50 [2]
O=S(=O)(c1ccc2c(c1)CCCN2)N1CCCCC1 | -3.03% | – | 0.082 µM [rising, partial curve, poor fit]
CC(=O)Nc1ccc(-c2csc(NNC(=O)c3ccc(C)cc3)n2)cc1 | -11.9% | 0.0651 µM [falling, full curve, poor fit] | –
CCCOc1ccc(CNC(=O)c2ccc3c(c2)N(CC)CCS3)cc1 | -33.7% | 18.4 µM [falling, single point] | 13 µM [falling, partial curve]
CCOc1nc(Nc2ccc(OC)c(Cl)c2)nc(N2CCN(c3ccc(OC)cc3)CC2)n1 | 7.44% | 1.64 µM [rising, partial curve] | 0.731 µM [rising, full curve]
C/C(=N\NC(=O)c1cnccn1)c1ccc([N+](=O)[O-])cc1 | 16.1% | 0.461 µM [falling, single point] | –
COc1cc(C2C(C(=O)C(C)(C)C)=C(O)C(=O)N2Cc2ccccc2)ccc1O (stereo not given) | -25.6% | – | –
CC(=O)N1CCc2cc(S(=O)(=O)N3CCc4ccccc4C3)ccc21 | 49.3% | 4.11 µM [rising, partial curve] | –
S=c1[nH]nc(-c2ccc3ccccc3n2)n1-c1ccc2ncccc2c1 | 14.1% | – | 1.64 µM [rising, partial curve]
COc1ccc(OCC(=O)NNC(=S)NC(=O)C2CCCCC2)cc1 | 16.8% | – | –
C/C(=N\NC(=O)c1c[nH]c2ccccc12)c1ccc(C)s1 | 26.3% | – | –
Cc1ccc(S(=O)(=O)CCC(=O)OCC(=O)Nc2cc(S(=O)(=O)N3CCOCC3)ccc2C)cc1 | 1.18% | – | 29.1 µM [falling, single point]
O=C(CSc1nccn1Cc1ccccc1)NCc1ccccc1 | 59.2% | 20.6 µM [rising, single point] | –
CCOc1ccccc1NC(=O)C1CCN(S(C)(=O)=O)CC1 | -10.9% | – | –
CCOC(=O)C1CCN(C(=O)C2(NC(=O)Nc3ccc(F)cc3F)CCCCC2)CC1 | -10.9% | – | –
CC1CCCCC1NC(=O)c1cncc(Br)c1 (stereo not given) | – | – | 23.1 µM [rising, single point]
Cc1ccc(S(=O)(=O)N2CCOCC2)cc1C(=O)NCC1CCCCC1 | 2.24% | – | 29.1 µM [falling, single point]
COCCN(C(=O)COC(=O)CCOc1ccccc1C)c1c(N)n(Cc2ccccc2)c(=O)[nH]c1=O | 0.0963% | – | 23.1 µM [falling, partial curve, poor fit]
Cc1ccc(Cn2ccc(=O)c(OCc3c(Cl)cccc3Cl)c2C)cc1 | -72.7% | 16.4 µM [falling, partial curve] | 0.184 µM [falling, full curve, poor fit]
N#Cc1ccc(N2Cc3ccccc3/C2=N/C(=O)Nc2ccc(Cl)cc2)cc1 | 83.3% | 6.51 µM [falling, single point] | 20.6 µM [rising, partial curve]
